These are yes or no findings as the source states them, for the method shown. Some results given as binding are weak or reduced against the parent protein; the word gives no strength.
Molecular target: T1, Tau peptide (SEQ ID NO:6)
T1 sequence (peptide): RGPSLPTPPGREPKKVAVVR
Assay: EGFET biochip, antibody captured via biotin/avidin, Tau peptide added at various concentrations, electrical signal

B1: biotinylated anti-Tau antibody including Tau-217-123 VL and Tau-217-123 VH (antibody, V domains shown)
VH: QVQLQQPGSELVRPGASVKLSCKASGYTFTSYWMHWVKQRHGQGLEWIGNIYPGSGSTNYDEKFKSKGTLTVDTSSSTAYMHLSSLTSEDSAVYYCTTGTAYWGQGTLVTVSA
VL: DIVMTQSPSSLSASLGERVSLTCRASQEISGYLSWLQQKPDGTIKRLIYAASTLDSGVPKRFSGSRSGSDYSLTISSLESEDFADYYCLQYASYPWTFGGGTKLEIKR
B1 was tested, and the binding was “binds”.

From patent US20230296555A1
